Laboratory results published in paper doi:10.1101/2024.10.01.615909 (bioRxiv, 2024).
These are yes or no findings as the source states them, for the method shown. For some of these results: Binding can be weak; no strength is given. Sequences can lack the tags named with a protein. For some of these results: Binding seen in cells or lysates may run through a third protein.

B1: KLCR1 fused to the Gal4 activation domain (protein, UniProt O81629 1-609)
chain: MPAMPGLVSVKTPSDTPPLRVAVPDTQPLSNPPRTPMKKTPSSTPSRSKPSPNRSTGKKDSPTVSSSTAAVIDVDDPSLDNPDLGPFLLKLARDAIASGEGPNKALDYAIRATKSFERCCAAVAPPIPGGSDGGPVLDLAMSLHVLAAIYCSLGRFDEAVPPLERAIQVPDPTRGPDHSLAAFSGHMQLGDTLSMLGQIDRSIACYEEGLKIQIQTLGDTDPRVGETCRYLAEAYVQAMQFNKAEELCKKTLEIHRAHSEPASLEEAADRRLMAIICEAKGDYENALEHLVLASMAMIASGQESEVASIDVSIGNIYMSLCRFDEAVFSYQKALTVFKASKGETHPTVASVFVRLAELYHRTGKLRESKSYCENALRIYNKPVPGTTVEEIAGGLTEISAIYESVDEPEEALKLLQKSMKLLEDKPGQQSAIAGLEARMGVMYYTVGRYEDARNAFESAVTKLRAAGEKSAFFGVVLNQMGLACVQLFKIDEAGELFEEARGILEQERGPCDQDTLGVYSNLAATYDAMGRIEDAIEILEQVLKLREEKLGTANPDFEDEKKRLAELLKEAGRSRNYKAKSLQNLIDPNARPPKKESSAKKWPSLGFKF
B2: GST-KLCR1 (protein, UniProt O81629 1-609)
chain: B1 chain

Legend:
[1] = molecular target: IQD2_(Cterm) fused to the Gal4 DNA-binding domain (Arabidopsis thaliana); experiment: two-hybrid
[2] = molecular target: IQD2_(Nterm) fused to the Gal4 DNA-binding domain (Arabidopsis thaliana); experiment: two-hybrid
[3] = molecular target: IQD2_(central) fused to the Gal4 DNA-binding domain (Arabidopsis thaliana); experiment: two-hybrid
[4] = molecular target: HS-IQD2_(ΔNterm) (Arabidopsis thaliana); experiment: pull-down

| Binder | binding [1] | binding [2] | binding [3] | binding [4] |
| --- | --- | --- | --- | --- |
| B1 | no binding | no binding | binds | – |
| B2 | – | – | – | binds |
